Experimental findings from the supplement of paper PMC7666118 are described below.

Protein sequences, listed by entry. Tags and fused reporters are not part of them. Lines headed by an entry give the natural chain unless they say otherwise; changes in a name come on top.
UniProt P15735: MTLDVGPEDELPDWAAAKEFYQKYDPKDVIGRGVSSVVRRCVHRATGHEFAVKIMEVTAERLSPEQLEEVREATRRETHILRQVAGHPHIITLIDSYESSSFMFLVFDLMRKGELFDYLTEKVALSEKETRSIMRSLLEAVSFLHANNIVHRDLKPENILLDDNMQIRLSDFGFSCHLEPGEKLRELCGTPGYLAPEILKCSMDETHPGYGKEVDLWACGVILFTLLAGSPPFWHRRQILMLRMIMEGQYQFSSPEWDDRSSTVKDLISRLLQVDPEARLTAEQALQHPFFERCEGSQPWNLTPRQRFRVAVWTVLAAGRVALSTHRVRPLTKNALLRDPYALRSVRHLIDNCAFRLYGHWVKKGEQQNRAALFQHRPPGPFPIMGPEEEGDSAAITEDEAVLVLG
UniProt P48736: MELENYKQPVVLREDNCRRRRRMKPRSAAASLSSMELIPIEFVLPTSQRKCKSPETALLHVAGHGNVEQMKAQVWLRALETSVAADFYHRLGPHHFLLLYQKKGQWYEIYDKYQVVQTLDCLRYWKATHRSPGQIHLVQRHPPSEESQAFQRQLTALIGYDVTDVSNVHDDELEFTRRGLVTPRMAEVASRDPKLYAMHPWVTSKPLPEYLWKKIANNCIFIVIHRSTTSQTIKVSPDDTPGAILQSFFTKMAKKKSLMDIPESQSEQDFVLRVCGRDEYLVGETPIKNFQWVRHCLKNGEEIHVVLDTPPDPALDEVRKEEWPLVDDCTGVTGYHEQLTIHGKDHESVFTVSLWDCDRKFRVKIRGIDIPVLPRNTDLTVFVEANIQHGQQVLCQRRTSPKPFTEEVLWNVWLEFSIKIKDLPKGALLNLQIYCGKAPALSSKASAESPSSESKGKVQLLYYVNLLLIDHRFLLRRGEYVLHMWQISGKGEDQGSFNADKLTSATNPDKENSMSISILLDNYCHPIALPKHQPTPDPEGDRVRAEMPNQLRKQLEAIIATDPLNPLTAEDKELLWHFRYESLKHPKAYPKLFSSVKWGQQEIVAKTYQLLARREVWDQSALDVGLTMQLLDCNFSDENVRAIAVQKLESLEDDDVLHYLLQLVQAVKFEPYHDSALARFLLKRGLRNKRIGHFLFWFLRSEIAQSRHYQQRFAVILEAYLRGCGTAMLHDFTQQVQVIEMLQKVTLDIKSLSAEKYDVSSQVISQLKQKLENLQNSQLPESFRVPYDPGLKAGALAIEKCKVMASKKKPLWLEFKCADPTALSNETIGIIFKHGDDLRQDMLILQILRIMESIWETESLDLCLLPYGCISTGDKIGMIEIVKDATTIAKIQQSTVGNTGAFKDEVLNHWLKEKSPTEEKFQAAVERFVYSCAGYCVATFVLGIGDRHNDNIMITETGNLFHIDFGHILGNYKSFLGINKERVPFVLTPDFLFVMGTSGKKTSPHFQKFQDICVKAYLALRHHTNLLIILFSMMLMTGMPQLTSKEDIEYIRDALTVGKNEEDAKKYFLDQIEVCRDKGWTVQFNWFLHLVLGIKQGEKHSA
UniProt Q99471, whole entry: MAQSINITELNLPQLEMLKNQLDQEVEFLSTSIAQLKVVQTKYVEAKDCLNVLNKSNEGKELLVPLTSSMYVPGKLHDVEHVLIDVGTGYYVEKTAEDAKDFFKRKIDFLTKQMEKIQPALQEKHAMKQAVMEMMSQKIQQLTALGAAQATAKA
UniProt Q9NQV6: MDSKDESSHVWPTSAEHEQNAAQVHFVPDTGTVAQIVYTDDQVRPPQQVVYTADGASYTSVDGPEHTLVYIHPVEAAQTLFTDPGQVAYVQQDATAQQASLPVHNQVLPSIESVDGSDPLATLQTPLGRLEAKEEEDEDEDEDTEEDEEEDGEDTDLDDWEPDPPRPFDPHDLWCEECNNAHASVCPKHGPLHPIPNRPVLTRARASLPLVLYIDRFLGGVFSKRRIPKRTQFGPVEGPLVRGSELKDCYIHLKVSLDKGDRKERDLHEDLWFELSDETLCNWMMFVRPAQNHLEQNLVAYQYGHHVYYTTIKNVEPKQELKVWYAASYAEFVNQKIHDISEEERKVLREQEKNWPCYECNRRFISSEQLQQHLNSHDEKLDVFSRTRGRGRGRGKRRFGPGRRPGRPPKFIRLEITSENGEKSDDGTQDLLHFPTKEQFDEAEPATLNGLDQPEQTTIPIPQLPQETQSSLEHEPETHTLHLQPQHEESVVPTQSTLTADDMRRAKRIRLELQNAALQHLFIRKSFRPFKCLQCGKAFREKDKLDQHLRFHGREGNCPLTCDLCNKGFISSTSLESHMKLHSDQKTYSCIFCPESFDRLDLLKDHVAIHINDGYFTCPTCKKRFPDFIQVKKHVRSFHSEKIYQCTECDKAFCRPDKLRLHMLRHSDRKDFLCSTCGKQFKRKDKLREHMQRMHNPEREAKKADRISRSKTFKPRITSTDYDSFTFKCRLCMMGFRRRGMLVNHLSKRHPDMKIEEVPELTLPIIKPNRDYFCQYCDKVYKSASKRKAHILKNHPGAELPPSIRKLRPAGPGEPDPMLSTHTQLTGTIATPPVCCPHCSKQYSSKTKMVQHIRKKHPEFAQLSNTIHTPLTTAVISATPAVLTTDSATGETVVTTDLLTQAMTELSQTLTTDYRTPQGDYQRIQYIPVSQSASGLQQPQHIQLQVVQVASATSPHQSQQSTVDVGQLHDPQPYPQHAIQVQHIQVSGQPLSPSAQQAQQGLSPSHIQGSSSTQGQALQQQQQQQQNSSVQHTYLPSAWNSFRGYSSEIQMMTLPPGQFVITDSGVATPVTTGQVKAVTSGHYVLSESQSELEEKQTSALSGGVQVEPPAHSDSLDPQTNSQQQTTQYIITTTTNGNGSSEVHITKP
UniProt Q5VU43: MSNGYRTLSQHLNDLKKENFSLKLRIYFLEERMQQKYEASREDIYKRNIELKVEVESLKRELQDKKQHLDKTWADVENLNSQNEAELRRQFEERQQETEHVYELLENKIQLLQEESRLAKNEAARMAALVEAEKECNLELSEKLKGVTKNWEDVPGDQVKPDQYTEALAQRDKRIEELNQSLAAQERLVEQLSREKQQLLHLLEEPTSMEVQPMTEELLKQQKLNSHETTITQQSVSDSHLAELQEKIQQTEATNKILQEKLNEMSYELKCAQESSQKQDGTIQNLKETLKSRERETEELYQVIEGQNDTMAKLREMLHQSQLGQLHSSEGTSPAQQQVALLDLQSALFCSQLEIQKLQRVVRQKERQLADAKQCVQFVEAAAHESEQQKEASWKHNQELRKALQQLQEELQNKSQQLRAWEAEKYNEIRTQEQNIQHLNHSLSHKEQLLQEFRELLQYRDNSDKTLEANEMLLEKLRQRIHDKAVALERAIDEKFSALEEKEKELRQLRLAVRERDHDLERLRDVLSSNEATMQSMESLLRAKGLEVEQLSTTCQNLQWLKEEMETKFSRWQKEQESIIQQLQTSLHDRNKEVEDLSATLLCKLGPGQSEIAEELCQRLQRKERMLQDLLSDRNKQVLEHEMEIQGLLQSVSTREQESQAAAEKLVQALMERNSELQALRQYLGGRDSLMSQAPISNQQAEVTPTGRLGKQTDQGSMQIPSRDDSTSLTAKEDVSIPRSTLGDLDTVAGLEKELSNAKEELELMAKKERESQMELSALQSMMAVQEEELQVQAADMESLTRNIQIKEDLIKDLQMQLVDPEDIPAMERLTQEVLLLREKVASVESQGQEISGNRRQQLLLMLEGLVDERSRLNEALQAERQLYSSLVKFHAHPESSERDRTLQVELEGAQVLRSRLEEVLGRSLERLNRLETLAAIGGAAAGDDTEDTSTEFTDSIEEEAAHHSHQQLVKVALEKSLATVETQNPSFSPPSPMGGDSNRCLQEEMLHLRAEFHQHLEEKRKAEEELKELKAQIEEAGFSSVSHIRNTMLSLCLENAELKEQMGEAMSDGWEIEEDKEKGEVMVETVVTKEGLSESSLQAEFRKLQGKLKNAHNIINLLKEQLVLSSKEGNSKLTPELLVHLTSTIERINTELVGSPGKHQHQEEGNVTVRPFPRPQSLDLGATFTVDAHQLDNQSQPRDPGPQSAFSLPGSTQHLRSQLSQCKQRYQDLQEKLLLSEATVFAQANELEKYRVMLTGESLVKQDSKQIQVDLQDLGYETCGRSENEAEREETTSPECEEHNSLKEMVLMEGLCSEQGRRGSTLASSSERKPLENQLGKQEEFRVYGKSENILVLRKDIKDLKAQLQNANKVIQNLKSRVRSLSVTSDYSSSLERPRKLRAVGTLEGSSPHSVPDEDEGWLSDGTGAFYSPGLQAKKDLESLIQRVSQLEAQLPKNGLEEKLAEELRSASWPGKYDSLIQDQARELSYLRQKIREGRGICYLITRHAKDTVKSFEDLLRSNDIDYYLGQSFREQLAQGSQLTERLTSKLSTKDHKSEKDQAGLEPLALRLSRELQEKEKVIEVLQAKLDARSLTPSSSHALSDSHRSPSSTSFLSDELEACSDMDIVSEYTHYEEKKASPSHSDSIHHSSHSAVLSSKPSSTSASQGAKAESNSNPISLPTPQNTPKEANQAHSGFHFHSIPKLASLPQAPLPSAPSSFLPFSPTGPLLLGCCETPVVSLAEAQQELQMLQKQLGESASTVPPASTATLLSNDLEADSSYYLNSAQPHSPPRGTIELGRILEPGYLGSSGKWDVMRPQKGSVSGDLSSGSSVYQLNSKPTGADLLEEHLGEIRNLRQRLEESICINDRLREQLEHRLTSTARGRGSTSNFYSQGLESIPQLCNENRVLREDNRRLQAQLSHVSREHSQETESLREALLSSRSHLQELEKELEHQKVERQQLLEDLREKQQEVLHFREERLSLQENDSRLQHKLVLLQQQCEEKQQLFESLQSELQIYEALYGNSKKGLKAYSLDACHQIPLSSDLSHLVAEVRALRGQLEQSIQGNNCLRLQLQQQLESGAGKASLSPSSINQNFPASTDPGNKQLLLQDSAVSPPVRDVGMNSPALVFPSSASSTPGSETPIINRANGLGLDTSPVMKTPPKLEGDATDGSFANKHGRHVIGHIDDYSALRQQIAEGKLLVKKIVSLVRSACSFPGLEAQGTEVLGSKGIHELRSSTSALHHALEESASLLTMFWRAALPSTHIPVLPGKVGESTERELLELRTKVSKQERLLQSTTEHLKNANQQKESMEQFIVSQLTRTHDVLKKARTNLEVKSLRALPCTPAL
UniProt P30153, whole entry: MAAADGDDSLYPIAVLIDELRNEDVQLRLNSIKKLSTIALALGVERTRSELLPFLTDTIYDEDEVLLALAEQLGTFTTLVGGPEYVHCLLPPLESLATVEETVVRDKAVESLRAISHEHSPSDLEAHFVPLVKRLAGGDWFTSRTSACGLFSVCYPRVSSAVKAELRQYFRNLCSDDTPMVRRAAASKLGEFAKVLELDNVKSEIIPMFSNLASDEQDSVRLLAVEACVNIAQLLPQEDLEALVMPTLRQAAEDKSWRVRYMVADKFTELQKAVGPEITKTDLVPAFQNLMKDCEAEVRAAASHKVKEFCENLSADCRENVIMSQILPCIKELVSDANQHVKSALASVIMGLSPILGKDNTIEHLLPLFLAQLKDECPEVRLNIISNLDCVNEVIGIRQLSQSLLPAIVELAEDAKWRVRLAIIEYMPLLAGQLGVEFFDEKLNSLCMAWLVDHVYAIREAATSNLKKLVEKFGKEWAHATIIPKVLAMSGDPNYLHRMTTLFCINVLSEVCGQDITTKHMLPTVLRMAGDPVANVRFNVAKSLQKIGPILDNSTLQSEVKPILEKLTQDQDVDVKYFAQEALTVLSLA
UniProt Q16875: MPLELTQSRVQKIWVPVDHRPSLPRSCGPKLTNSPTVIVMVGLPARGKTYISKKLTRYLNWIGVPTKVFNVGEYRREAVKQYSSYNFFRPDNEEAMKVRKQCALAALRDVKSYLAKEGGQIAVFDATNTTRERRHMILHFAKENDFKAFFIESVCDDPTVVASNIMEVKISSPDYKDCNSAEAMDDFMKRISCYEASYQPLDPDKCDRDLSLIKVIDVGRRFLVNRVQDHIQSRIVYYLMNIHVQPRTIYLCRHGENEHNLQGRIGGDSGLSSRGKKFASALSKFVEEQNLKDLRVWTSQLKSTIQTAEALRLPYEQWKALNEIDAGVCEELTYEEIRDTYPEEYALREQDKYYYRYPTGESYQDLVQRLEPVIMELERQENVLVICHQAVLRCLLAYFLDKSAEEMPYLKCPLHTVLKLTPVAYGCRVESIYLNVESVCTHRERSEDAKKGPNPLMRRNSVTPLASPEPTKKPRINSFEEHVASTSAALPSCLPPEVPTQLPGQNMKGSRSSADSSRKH
UniProt P41236: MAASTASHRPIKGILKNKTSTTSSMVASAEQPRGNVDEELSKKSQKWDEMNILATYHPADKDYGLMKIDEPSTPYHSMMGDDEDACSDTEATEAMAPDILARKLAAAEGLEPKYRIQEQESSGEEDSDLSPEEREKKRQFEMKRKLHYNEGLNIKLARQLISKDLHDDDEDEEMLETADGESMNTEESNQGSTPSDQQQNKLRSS
UniProt O60927: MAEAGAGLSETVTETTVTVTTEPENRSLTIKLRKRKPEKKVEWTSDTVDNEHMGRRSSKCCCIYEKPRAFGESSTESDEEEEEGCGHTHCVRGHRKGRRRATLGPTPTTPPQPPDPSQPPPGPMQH

The list shows a part of the results.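 How the source made its calls: active = dose-dependent thermal stabilisation significant by F-test of dose-response against flat model at 10% FDR; inactive = not significant.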

Compound in the assay: Nc1nc2c(ncn2[C@@H]2O[C@H](COP(=O)(O)OP(=O)(O)OP(=O)(O)O)[C@@H](O)[C@H]2O)c(=O)[nH]1
Briefly: dose-dependent thermal stabilisation call (2D-TPP, DLPTP, 10% FDR) (binary (1 = stabilised)); higher = stabilised by the compound. To be noted: system: Jurkat gel-filtered lysate; concentration range 1-500 µM. As to the method:
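2D thermal proteome profiling in gel-filtered Jurkat E6.1 lysate (2 mg/ml) treated with NaGTP (0, 1, 10, 100, 500 uM) for 10 min at room temperature, then heated 3 min at one of 12 temperatures (42-63.9 C). Soluble protein was quantified by TMT10 MS. The value is the DLPTP call of the paper: dose-dependent thermal stabilisation over all temperatures at 10% FDR (F-test of a dose-response against a flat model); one experiment, one call per tested protein.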
Turning to PEAK1 (UniProt Q9H792), the “dose-dependent thermal stabilisation call” value is inactive: 0.
Turning to PHKG2 (UniProt P15735), the “dose-dependent thermal stabilisation call” value is inactive: 0.
For the target PIK3CG (UniProt P48736), the “dose-dependent thermal stabilisation call” value is inactive: 0.
Consider POMP (UniProt Q9Y244), for which the “dose-dependent thermal stabilisation call” value was inactive: 0.
As for PGPEP1 (UniProt Q9NXJ5), the figure is inactive: 0; as for PRDX3 (UniProt P30048), inactive: 0.
As for PFDN5 (UniProt Q99471), the figure is inactive: 0.
Then PRDM10 (UniProt Q9NQV6), with inactive: 0; and PLXNA1 (UniProt Q9UIW2), with inactive: 0; and PPM1E (UniProt Q8WY54), with inactive: 0.
For the target PLK1 (UniProt P53350), the “dose-dependent thermal stabilisation call” value was active: 1.
For POLR2I (UniProt P36954), the “dose-dependent thermal stabilisation call” value is inactive: 0.
Then PCYT2 (UniProt Q99447), with active: 1; and PCNA (UniProt P12004), with active: 1; and PMM2 (UniProt O15305), with inactive: 0.
As for POLR2G (UniProt P62487), the “dose-dependent thermal stabilisation call” value is inactive: 0.
Consider PDE4DIP (UniProt Q5VU43), for which the “dose-dependent thermal stabilisation call” value is inactive: 0.
Then PPP2R5A (UniProt Q15172), with inactive: 0.
Turning to PPID (UniProt Q08752), the “dose-dependent thermal stabilisation call” value is inactive: 0.
As to POLA1 (UniProt P09884), the “dose-dependent thermal stabilisation call” value is inactive: 0.
As for PPP2R1A (UniProt P30153), the figure is inactive: 0; as for PDXP (UniProt Q96GD0), inactive: 0; as for PDS5B (UniProt Q9NTI5), inactive: 0.
As for PQBP1 (UniProt O60828), the “dose-dependent thermal stabilisation call” value is inactive: 0.
As for PFKFB3 (UniProt Q16875), the figure is inactive: 0; as for PIKFYVE (UniProt Q9Y2I7), inactive: 0.
For PDCD2L (UniProt Q9BRP1), the “dose-dependent thermal stabilisation call” value is active: 1.
In the case of PLEKHO2 (UniProt Q8TD55), the “dose-dependent thermal stabilisation call” value is inactive: 0.
Then PITRM1 (UniProt Q5JRX3), with inactive: 0; and PPP4R1 (UniProt Q8TF05), with inactive: 0; and PPP1R2 (UniProt P41236), with inactive: 0.
As for PEF1 (UniProt Q9UBV8), the figure is inactive: 0; as for POC5 (UniProt Q8NA72), inactive: 0.
As for PPP2R5D (UniProt Q14738), the figure is active: 1; as for PEX19 (UniProt P40855), inactive: 0; as for PFKFB2 (UniProt O60825), inactive: 0.
In the case of PPP1R11 (UniProt O60927), the “dose-dependent thermal stabilisation call” value was inactive: 0.
Turning to PPP1R10 (UniProt Q96QC0), the “dose-dependent thermal stabilisation call” value is inactive: 0.
With PGGT1B (UniProt P53609), the “dose-dependent thermal stabilisation call” value was inactive: 0.
Then PPIL3 (UniProt Q9H2H8), with active: 1.
